No constants are given. Whether binding was seen depends on the method and setting. For part of these data: Binding seen in cells or lysates may run through a third protein. Some binding calls cover weakened binding; strength is not graded here. For part of these data: Tags and fused reporters may be left off the sequences shown.
How the values were obtained:
[1] = target: T1, MxA-V5 (myxovirus resistant protein 1, V5-tagged) (human) (UniProt P20591); assay: co-IP
T1 sequence: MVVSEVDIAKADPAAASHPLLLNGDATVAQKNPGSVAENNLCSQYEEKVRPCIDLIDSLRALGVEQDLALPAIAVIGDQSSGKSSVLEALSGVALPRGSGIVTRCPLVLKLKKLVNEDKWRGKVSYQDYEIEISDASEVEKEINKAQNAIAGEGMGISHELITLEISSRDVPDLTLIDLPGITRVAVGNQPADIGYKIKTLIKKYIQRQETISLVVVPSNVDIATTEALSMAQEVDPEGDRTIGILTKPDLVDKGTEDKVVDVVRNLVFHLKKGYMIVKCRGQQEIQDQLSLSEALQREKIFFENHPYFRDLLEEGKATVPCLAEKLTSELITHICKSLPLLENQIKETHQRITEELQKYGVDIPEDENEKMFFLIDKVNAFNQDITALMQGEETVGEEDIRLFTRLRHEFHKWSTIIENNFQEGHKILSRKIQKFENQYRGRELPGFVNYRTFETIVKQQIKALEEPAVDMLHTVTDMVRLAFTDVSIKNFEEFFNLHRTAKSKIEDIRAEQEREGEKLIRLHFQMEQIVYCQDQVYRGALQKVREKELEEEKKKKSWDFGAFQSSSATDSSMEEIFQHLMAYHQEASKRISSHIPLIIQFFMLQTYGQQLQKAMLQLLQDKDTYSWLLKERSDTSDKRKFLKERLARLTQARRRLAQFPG

Protein sequences, listed by entry. Tags and fused reporters are not part of them. Residues count along the entry.
UniProt P01584, 117-269: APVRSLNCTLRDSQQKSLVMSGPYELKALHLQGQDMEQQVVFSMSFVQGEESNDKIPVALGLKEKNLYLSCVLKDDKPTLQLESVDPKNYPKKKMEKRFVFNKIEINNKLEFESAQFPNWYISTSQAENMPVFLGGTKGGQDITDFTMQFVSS

[2] = target: MxA (endogenous, membrane-bound) (human (endogenous in BLaER1)) (UniProt P20591); assay: semidenaturing detergent agarose gel electrophoresis
[3] = target: purified human MxA (recombinant) (human) (UniProt P20591); assay: cross-linking

mature IL-1β (endogenous) (from UniProt P01584 117-269)
binding [1]: binds

B1: MxA (endogenous, membrane-bound) (protein, UniProt P20591 1-662)
chain: MVVSEVDIAKADPAAASHPLLLNGDATVAQKNPGSVAENNLCSQYEEKVRPCIDLIDSLRALGVEQDLALPAIAVIGDQSSGKSSVLEALSGVALPRGSGIVTRCPLVLKLKKLVNEDKWRGKVSYQDYEIEISDASEVEKEINKAQNAIAGEGMGISHELITLEISSRDVPDLTLIDLPGITRVAVGNQPADIGYKIKTLIKKYIQRQETISLVVVPSNVDIATTEALSMAQEVDPEGDRTIGILTKPDLVDKGTEDKVVDVVRNLVFHLKKGYMIVKCRGQQEIQDQLSLSEALQREKIFFENHPYFRDLLEEGKATVPCLAEKLTSELITHICKSLPLLENQIKETHQRITEELQKYGVDIPEDENEKMFFLIDKVNAFNQDITALMQGEETVGEEDIRLFTRLRHEFHKWSTIIENNFQEGHKILSRKIQKFENQYRGRELPGFVNYRTFETIVKQQIKALEEPAVDMLHTVTDMVRLAFTDVSIKNFEEFFNLHRTAKSKIEDIRAEQEREGEKLIRLHFQMEQIVYCQDQVYRGALQKVREKELEEEKKKKSWDFGAFQSSSATDSSMEEIFQHLMAYHQEASKRISSHIPLIIQFFMLQTYGQQLQKAMLQLLQDKDTYSWLLKERSDTSDKRKFLKERLARLTQARRRLAQFPG
binding [2]: binds

B2: purified human MxA (recombinant) (protein, UniProt P20591 1-662)
chain: MVVSEVDIAKADPAAASHPLLLNGDATVAQKNPGSVAENNLCSQYEEKVRPCIDLIDSLRALGVEQDLALPAIAVIGDQSSGKSSVLEALSGVALPRGSGIVTRCPLVLKLKKLVNEDKWRGKVSYQDYEIEISDASEVEKEINKAQNAIAGEGMGISHELITLEISSRDVPDLTLIDLPGITRVAVGNQPADIGYKIKTLIKKYIQRQETISLVVVPSNVDIATTEALSMAQEVDPEGDRTIGILTKPDLVDKGTEDKVVDVVRNLVFHLKKGYMIVKCRGQQEIQDQLSLSEALQREKIFFENHPYFRDLLEEGKATVPCLAEKLTSELITHICKSLPLLENQIKETHQRITEELQKYGVDIPEDENEKMFFLIDKVNAFNQDITALMQGEETVGEEDIRLFTRLRHEFHKWSTIIENNFQEGHKILSRKIQKFENQYRGRELPGFVNYRTFETIVKQQIKALEEPAVDMLHTVTDMVRLAFTDVSIKNFEEFFNLHRTAKSKIEDIRAEQEREGEKLIRLHFQMEQIVYCQDQVYRGALQKVREKELEEEKKKKSWDFGAFQSSSATDSSMEEIFQHLMAYHQEASKRISSHIPLIIQFFMLQTYGQQLQKAMLQLLQDKDTYSWLLKERSDTSDKRKFLKERLARLTQARRRLAQFPG
binding [3]: binds
